US9968076B2, “Transgenic animals capable of being induced to delete senescent cells” (Mayo Foundation for Medical Education and Research, priority 2011, dated 2018)
At least one structure is not confirmed: it was looked up by name or label, or the drawing left a doubt.

Tested on: bone marrow of wildtype (WT):INK-ATTAC transgenic lines 3 and 5
Test: Rosiglitazone induction of INK-ATTAC transgene expression in cultured bone marrow cells (Flag immunofluorescence)
Type: cell-based, mouse
Settings: 1 μM rosiglitazone, 48 hours, versus absence

CN(CCOc1ccc(CC2SC(=O)NC2=O)cc1)c1ccccn1 (stereo not shown) [rosiglitazone]
cells expressing Flag-tagged FKBP-Casp8 fusion protein (immunofluorescence microscopy): a high proportion of cells expressed Flag-tagged FKBP-Casp8 fusion protein
